Assay results from ChEMBL document CHEMBL4725494 (ACS Med Chem Lett, 2020).

The chains behind the UniProt entries cited, without tags or fusion partners. Where a name states a change or a piece, a line headed by the entry shows the natural chain unless it says otherwise.
UniProt Q13547, whole entry: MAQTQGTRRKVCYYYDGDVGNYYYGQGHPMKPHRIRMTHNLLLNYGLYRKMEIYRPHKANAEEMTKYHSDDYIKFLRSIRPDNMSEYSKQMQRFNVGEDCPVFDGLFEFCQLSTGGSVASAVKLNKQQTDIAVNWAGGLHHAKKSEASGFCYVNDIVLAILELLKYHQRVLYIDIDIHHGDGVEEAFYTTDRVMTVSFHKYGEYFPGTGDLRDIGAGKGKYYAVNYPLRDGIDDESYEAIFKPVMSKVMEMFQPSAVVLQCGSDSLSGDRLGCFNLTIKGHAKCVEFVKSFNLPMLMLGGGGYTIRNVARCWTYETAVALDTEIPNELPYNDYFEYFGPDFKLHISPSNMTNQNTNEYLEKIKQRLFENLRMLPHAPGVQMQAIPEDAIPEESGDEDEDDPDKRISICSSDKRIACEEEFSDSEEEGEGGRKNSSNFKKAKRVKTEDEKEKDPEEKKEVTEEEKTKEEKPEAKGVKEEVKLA
UniProt Q12809: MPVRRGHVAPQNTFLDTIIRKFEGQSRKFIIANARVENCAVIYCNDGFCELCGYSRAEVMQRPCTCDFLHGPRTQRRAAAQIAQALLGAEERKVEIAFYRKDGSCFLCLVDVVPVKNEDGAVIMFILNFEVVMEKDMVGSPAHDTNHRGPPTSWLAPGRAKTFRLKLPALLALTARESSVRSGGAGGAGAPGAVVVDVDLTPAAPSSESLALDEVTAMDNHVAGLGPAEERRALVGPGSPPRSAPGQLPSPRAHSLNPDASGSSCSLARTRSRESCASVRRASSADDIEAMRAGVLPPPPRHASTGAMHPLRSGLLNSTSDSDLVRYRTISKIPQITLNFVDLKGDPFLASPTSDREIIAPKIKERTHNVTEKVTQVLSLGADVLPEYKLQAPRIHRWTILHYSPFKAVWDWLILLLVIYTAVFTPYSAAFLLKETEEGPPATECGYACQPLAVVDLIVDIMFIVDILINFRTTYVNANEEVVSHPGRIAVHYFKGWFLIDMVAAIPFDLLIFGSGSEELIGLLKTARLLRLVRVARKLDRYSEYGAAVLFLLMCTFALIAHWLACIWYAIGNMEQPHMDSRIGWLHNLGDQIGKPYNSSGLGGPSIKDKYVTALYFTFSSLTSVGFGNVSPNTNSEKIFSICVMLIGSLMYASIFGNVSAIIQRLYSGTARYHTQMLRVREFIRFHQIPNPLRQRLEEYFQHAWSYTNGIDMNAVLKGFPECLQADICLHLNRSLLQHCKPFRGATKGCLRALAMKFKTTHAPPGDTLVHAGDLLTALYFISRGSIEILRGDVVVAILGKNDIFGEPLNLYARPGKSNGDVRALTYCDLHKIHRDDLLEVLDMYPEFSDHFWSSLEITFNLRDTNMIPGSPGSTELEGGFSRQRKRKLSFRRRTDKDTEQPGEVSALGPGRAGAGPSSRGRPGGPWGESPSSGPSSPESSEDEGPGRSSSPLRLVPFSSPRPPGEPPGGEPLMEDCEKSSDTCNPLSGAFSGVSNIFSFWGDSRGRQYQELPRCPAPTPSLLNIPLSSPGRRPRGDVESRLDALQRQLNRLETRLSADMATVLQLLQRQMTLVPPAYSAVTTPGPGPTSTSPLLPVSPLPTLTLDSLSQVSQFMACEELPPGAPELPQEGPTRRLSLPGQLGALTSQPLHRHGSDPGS

Key:
Histone deacetylase 1 = Histone deacetylase 1 (Homo sapiens, UniProt Q13547); assay: biochemical
in vivo [1] = details: Wistar-Han, rat, iv, 0.5 mg/kg
in vivo [2] = details: Wistar-Han, rat, iv, 0.5 mg/kg; remark: listed apart in the source
in vivo [3] = details: Wistar-Han, rat, iv, 0.5 mg/kg; remark: listed apart in the source
in vivo [4] = details: Wistar-Han, rat, iv, 0.5 mg/kg; remark: listed apart in the source
[5] = biological target: Voltage-gated inwardly rectifying potassium channel KCNH2 (Homo sapiens, UniProt Q12809)
[6] = biological target: T1, Protein deacetylase HDAC6 (Homo sapiens, UniProt Q9UBN7)
T1 sequence (Q9UBN7 whole entry): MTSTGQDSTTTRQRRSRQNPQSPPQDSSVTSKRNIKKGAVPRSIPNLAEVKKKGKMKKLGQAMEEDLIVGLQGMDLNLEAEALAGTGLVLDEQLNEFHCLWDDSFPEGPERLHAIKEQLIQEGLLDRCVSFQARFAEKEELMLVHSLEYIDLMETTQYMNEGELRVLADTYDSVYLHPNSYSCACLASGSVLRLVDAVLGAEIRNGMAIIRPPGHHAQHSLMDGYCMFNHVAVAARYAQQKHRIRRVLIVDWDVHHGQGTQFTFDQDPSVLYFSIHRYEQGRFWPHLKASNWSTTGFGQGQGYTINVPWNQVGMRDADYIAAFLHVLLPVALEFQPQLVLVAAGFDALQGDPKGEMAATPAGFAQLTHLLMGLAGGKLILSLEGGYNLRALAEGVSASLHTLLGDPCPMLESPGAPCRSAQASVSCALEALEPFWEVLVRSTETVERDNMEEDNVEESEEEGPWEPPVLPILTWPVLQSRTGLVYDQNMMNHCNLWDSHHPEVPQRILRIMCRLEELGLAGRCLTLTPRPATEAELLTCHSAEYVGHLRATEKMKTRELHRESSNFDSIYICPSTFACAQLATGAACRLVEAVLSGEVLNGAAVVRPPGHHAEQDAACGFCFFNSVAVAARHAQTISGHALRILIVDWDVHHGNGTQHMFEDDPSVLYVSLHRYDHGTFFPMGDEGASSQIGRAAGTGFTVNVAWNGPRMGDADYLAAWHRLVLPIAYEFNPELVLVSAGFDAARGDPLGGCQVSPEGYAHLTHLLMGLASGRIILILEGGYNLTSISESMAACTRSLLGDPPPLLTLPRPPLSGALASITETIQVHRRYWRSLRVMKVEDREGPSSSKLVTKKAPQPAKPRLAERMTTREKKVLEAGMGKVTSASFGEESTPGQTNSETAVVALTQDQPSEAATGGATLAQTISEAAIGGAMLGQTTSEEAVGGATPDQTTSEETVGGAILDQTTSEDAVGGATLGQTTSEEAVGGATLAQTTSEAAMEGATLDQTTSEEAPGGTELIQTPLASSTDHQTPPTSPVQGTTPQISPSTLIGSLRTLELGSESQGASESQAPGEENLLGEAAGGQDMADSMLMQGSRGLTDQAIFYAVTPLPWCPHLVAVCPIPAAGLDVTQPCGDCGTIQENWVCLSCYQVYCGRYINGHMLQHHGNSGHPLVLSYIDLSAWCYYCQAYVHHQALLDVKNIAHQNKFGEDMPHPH

O=C(N[C@@H](CCCCNC(=O)c1ccccc1OCC(F)(F)F)c1ncc(-c2ccc3ccccc3c2)[nH]1)c1cncs1
IC50 (Histone deacetylase 1): > 45 µM

CCSc1ccccc1C(=O)NCCCC[C@H](NC(=O)c1cncs1)c1ncc(-c2ccc3ccccc3c2)[nH]1
IC50 (Histone deacetylase 1): > 45 µM

CCc1ccccc1C(=O)NCCCC[C@H](NC(=O)c1cncs1)c1ncc(-c2ccc3ccccc3c2)[nH]1
IC50 (Histone deacetylase 1): > 45 µM

COc1nc2ccccc2cc1-c1cnc([C@H](CCCCNC(=O)c2ccccc2SC)NC(=O)c2cncs2)[nH]1
half-life (in vivo [1]): 19.2 min
clearance (in vivo [2]): 29 mL/min/kg
AUC (in vivo [3]): 0.049 µM·h
Vd (in vivo [4]): 0.86 L/kg
IC50 [5]: 1.33 µM
IC50 (Histone deacetylase 1): > 45 µM

O=C(N[C@@H](CCCCNC(=O)c1ccccc1OC(F)(F)F)c1ncc(-c2ccc3ccccc3c2)[nH]1)c1cncs1
IC50 (Histone deacetylase 1): > 45 µM

O=C(N[C@@H](CCCCNC(=O)c1ccccc1Cl)c1ncc(-c2ccc3ccccc3c2)[nH]1)c1cncs1
IC50 (Histone deacetylase 1): > 45 µM

N#Cc1ccccc1C(=O)NCCCC[C@H](NC(=O)c1cncs1)c1ncc(-c2ccc3ccccc3c2)[nH]1
IC50 (Histone deacetylase 1): > 45 µM

O=C(N[C@@H](CCCCNC(=O)c1cccc2c1CCC2)c1ncc(-c2ccc3ccccc3c2)[nH]1)c1cncs1
IC50 (Histone deacetylase 1): > 45 µM

COc1nc2ccccc2cc1-c1nnc([C@H](CCCCNC(=O)c2ccccc2SC)NC(=O)c2cncs2)o1
half-life (in vivo [1]): 21 min
clearance (in vivo [2]): 49 mL/min/kg
AUC (in vivo [3]): 0.029 µM·h
Vd (in vivo [4]): 1.3 L/kg
IC50 (Histone deacetylase 1): > 45 µM

COc1cccc(O)c1C(=O)NCCCC[C@H](NC(=O)c1cncs1)c1ncc(-c2ccc3ccccc3c2)[nH]1
IC50 [6]: > 45 µM
